This is an account of results in paper PMC7819943, “Rice protein-binding microarrays: a tool to detect cis-acting elements near promoter regions in rice”.

The chains behind the UniProt entries cited, without tags or fusion partners.
UniProt Q0JBA9, entry or part of it: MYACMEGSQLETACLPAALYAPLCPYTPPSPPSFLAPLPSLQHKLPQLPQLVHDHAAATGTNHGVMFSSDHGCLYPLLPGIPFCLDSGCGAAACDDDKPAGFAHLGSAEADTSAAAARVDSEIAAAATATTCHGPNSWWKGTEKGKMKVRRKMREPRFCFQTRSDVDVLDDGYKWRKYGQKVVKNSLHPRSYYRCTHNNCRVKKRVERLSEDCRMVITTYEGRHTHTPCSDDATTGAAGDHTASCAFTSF

The other results are listed elsewhere or left out.

For the experiment, the target named is OsWRKY34 (Oryza sativa, UniProt Q0JBA9 1-250). Kind of experiment: protein-binding microarray (RPBM); PBS, 2% BSA, 51.3 ng/ul salmon testes DNA, 50 uM zinc acetate, 200 nM TF, 25 C, 1 h; high values mean tight binding. The conditions noted are these: protein: recombinant; tags: N-terminal polyhistidine and DsRed monomer fusion (pET32a); label: CyDye5-dUTP incorporated in the synthesized complementary strand; 3' TTTTT single-stranded linker to array surface; dsDNA, one strand shown. A digest of the protocol:
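Per-feature fluorescence intensity (arbitrary units), read on an Axon 4000B scanner, is the binding signal. Transcription factors carrying an N-terminal polyhistidine tag and DsRed fusion were expressed in E. coli BL21-CodonPlus and purified on Ni–NTA. A custom Agilent array, made double-stranded by primer extension with Cy5-dUTP and blocked with 2% BSA, was incubated with 200 nM protein in PBS, 2% BSA, salmon testes DNA and 50 µM zinc acetate at 25 °C for 1 h and then washed.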
For the sequence “AAGGAGATAGTATAGGCTTTCATCGTTTCCTTTTTTTTCTCGGAGTCACCTAGTGCAG”, the binding signal was 8040 fluorescence intensity (a.u.).
With “CAGATCTCATCTCTCGGCCTGCCCTGCCCCTACGCACATTCGGAGTCACCTAGTGCAG”, the binding signal was 9160 fluorescence intensity (a.u.).
On to “ATGCAGAATTATAAAACTGGTGGGAGGGAGGGAGTATTCCCGGAGTCACCTAGTGCAG”, for which the binding signal is 9490 fluorescence intensity (a.u.).
For the sequence “TGTACAAGCGCAAGAACGCGCTTTGCTCATTAACACACCACGGAGTCACCTAGTGCAG”, the binding signal was 8120 fluorescence intensity (a.u.).
Under “GATGTACAATTTCCATTTCGTTATGTTCTTGACGTACTTGCGGAGTCACCTAGTGCAG” stands 8310 fluorescence intensity (a.u.).
As for “CCAACGTCGTACATCCCTCCACGTCATCGATCCGCGCCGCCGGAGTCACCTAGTGCAG”, the binding signal is 9430 fluorescence intensity (a.u.).
Under “CACCTCGTTTTGCGTATCTTCTCAATCTTCTCTTTTCTTCCGGAGTCACCTAGTGCAG” stands 8820 fluorescence intensity (a.u.).
The same measure for “ACTTCAATAAATATGTACTCCTTTTCATATAAGGGTTATTCGGAGTCACCTAGTGCAG”: 8190 fluorescence intensity (a.u.); for “ATCATCTCGTCTCGTCAGTCAAATCATCATTTGGTCAACACGGAGTCACCTAGTGCAG”: 12600 fluorescence intensity (a.u.); for “CCCGCCGCCGCGACGCCCGTCCGTTCCCGATCCGGCGGCCCGGAGTCACCTAGTGCAG”: 9850 fluorescence intensity (a.u.).
The same measure for “GGCTGGGATATAATAAGAGAGATGCTTCAACCTATGAAGACGGAGTCACCTAGTGCAG”: 8150 fluorescence intensity (a.u.).
For “AGTGGTGGTGAAGTGGGTGAGAAACTATCTTCTGTTCCTCCGGAGTCACCTAGTGCAG”, the binding signal was 10200 fluorescence intensity (a.u.).
Under “GACATCACGACACGTCATCGCTGTTCCGCCACCTCTGCAGCGGAGTCACCTAGTGCAG” stands 9200 fluorescence intensity (a.u.); under “GCCCATATCACCGACAGGTACGTTTTTTTAAAAATTTTTCCGGAGTCACCTAGTGCAG”, 9600 fluorescence intensity (a.u.).
For “ATCCAACAATGTACTGCACTACTATCAACGTATATCATCACGGAGTCACCTAGTGCAG”, the binding signal is 8920 fluorescence intensity (a.u.).
Under “ACGCCACAACCTTTTTTCCTGGCTAAGCTACTCCCTTAATCGGAGTCACCTAGTGCAG” stands 9620 fluorescence intensity (a.u.).
Under “CAGTTGCCATCTTACTTGCCTATGCAACTGCCCAACTACACGGAGTCACCTAGTGCAG” stands 8570 fluorescence intensity (a.u.); under “GCTCTTCACAATCATATGGCATTCTAGAAAGAATCTTTAGCGGAGTCACCTAGTGCAG”, 8030 fluorescence intensity (a.u.); under “CTTTTGCTTGTCACCGGCTACAACTTGCCATTTTGCTCTTCGGAGTCACCTAGTGCAG”, 12200 fluorescence intensity (a.u.).
Under “TACTTTGCTCTAATACACTTATGTTATGTGTAGGTTTTGCCGGAGTCACCTAGTGCAG” stands 9190 fluorescence intensity (a.u.).
“TGTCGCGTGTTCTCTAAACGCACTGTGTCGTGCTTCATCCCGGAGTCACCTAGTGCAG”: the binding signal was 11600 fluorescence intensity (a.u.).
Consider “TTATCTTTTCGCTTATACTTATTAGTCAAATTTTAAAATTCGGAGTCACCTAGTGCAG”, for which the binding signal was 10600 fluorescence intensity (a.u.).
Under “CTTTACCTTTTTTAGTTTGCCTTTGTTCTTTGCGGTGTTTCGGAGTCACCTAGTGCAG” stands 9960 fluorescence intensity (a.u.); under “ACATTTGTACACCTCAGCGGATCGCACAGCCACCCAACCACGGAGTCACCTAGTGCAG”, 9140 fluorescence intensity (a.u.).
Under “GACCTATTCGTCGTGACTGAAACACCACGGCACAGACAACCGGAGTCACCTAGTGCAG” stands 8060 fluorescence intensity (a.u.); under “TTATACTATCTCGTTTCTCGCACACATGTATGGTGTGTTTCGGAGTCACCTAGTGCAG”, 9630 fluorescence intensity (a.u.); under “GACACCGACACTTATACTGTAGATCCACCCCTGATGACATCGGAGTCACCTAGTGCAG”, 10600 fluorescence intensity (a.u.).
Under “TTTCTTATAATTCAGCTGCAATTTTTTTTTAAAAAAACAACGGAGTCACCTAGTGCAG” stands 9480 fluorescence intensity (a.u.).
As for “CCCTGCATCCCGCATTTCCTCCACTGCATACCAACACCAACGGAGTCACCTAGTGCAG”, the binding signal is 9390 fluorescence intensity (a.u.).
Under “CTCTCCCATATACAAACCGTCATCTTTCGTGCACATTTGGCGGAGTCACCTAGTGCAG” stands 9340 fluorescence intensity (a.u.).
The same measure for “GCATGCCCACGGTCATATATGTCTATTTACCTCTCAGATTCGGAGTCACCTAGTGCAG”: 9490 fluorescence intensity (a.u.).
The same measure for “TCTCTCCCATGTCCGGCCATGGCCGCCACCACCCGATCTCCGGAGTCACCTAGTGCAG”: 8120 fluorescence intensity (a.u.); for “TATATAAATACTACCTCCGTTTCAGGTTATAAGACTTTCTCGGAGTCACCTAGTGCAG”: 8700 fluorescence intensity (a.u.).
With “CGCCCACTGTACGTACCGGCATTACAGCTTAGACAACGTTCGGAGTCACCTAGTGCAG”, the binding signal is 8460 fluorescence intensity (a.u.).
The same measure for “GTCATTGGTGGTTTATATTGTTTGGCTTTTTTCCGGATTACGGAGTCACCTAGTGCAG”: 18500 fluorescence intensity (a.u.); for “CTTCCGCCTCCACCGCCGCCTCGCCGCTCCCATGGCCAGGCGGAGTCACCTAGTGCAG”: 8130 fluorescence intensity (a.u.); for “CACTCCTCATCTCCAATCACACCACACTGGTAAGAATCAACGGAGTCACCTAGTGCAG”: 8230 fluorescence intensity (a.u.).
Under “TTGGAGGACCAATTTGACCATTCACCCTTTTATAATACTGCGGAGTCACCTAGTGCAG” stands 8230 fluorescence intensity (a.u.); under “GGCCTCCCTGCTGCCTGATCTCCATTGTTTTCATAAGTCCCGGAGTCACCTAGTGCAG”, 8410 fluorescence intensity (a.u.); under “CTCTCTCTCTCTCTCTCCTTGTGGACTCGCAGTCTCGCTCCGGAGTCACCTAGTGCAG”, 11100 fluorescence intensity (a.u.).
The same measure for “CTCTCGCTCATCCCAATCCCCATCACGAGCGCCCCAGAATCGGAGTCACCTAGTGCAG”: 11600 fluorescence intensity (a.u.).
Turning to “CCTTGTCTTTTGTCTGCTTGATATTGTACTACGTAGATCCCGGAGTCACCTAGTGCAG”, the binding signal was 9830 fluorescence intensity (a.u.).
